Measurements reported in PubChem BioAssay AID1159578 (Peter MacCallum Cancer Centre, 2015)
Purpose: 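Genome-wide hunt for genes controlling movement of lymphatic endothelial cells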 (primary screen). Cell system: human lymphatic endothelial cells. Knock-down reagent: siRNA pool against human genes, 40 nM. Duration: 48 h after transfection. Measurement: 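High-content imaging of dye-stained cells in a scratch assay measures filled wound area and nuclei per well; duplicate means given as ratio to mock and robust z-score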. Direction: migration robust z-score: higher = faster migration into the scratch; migration relative to mock: higher = more scratch area covered than mock; nuclei per well: higher = more cells in the well. Call rule: 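Pools averaging fewer than 3300 nuclei are never called; remaining pools count as changed when migration robust z lies outside -2 to 2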. Meaning of the calls: active = migration changed; inactive = no migration change, or too few cells.
Shown is an unselected part of about 18,000 reagents tested. Over the whole deposit, about 1,030 (5.7%) are marked active. 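Inactive calls also include pools with fewer than 3300 nuclei, whose migration was not assessed.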 Raw values are not corrected between plates. Unmarked entries are inactive.

target,migration robust z-score,migration class with cell-count check,migration relative to mock,"nuclei per well, duplicate mean"
SIX6,-0.54,migration z between -2 and 2; enough cells,0.7,5020
GTPBP6,-1.02,migration z between -2 and 2; enough cells,0.62,5158
STX16,2.34 (active),migration z above 2; enough cells,1.49,5814
RNF149,1.06,migration z between -2 and 2; enough cells,1.01,5334
PAK1IP1,0.95,migration z between -2 and 2; enough cells,1.13,6532
BMAL1,-1.79,migration z between -2 and 2; enough cells,0.46,4794
CARMIL1,-1.14,migration z between -2 and 2; enough cells,0.59,5304
ZNF239,2.09 (active),migration z above 2; enough cells,1.43,7039
YRDC,-0.82,under 3300 nuclei; migration not judged,0.68,3127
RTP2,0.07,migration z between -2 and 2; enough cells,0.9,6570
PTPN7,-0.6,migration z between -2 and 2; enough cells,0.69,6481
KIR3DL1,0.19,migration z between -2 and 2; enough cells,0.94,4922
ABCG4,-1.64,migration z between -2 and 2; enough cells,0.49,6664
ANP32E,-0.13,migration z between -2 and 2; enough cells,0.85,5936
CARD9,-0.32,migration z between -2 and 2; enough cells,0.8,4921
TP53BP2,-0.34,migration z between -2 and 2; enough cells,0.8,3730
HNRNPL,-0.17,migration z between -2 and 2; enough cells,0.84,5412

Targets listed so far whose target name begins with S or s:
target,migration robust z-score,migration class with cell-count check,migration relative to mock,"nuclei per well, duplicate mean"
SIX6,-0.54,migration z between -2 and 2; enough cells,0.7,5020
STX16,2.34 (active),migration z above 2; enough cells,1.49,5814

Further entries follow:
target,migration robust z-score,migration class with cell-count check,migration relative to mock,"nuclei per well, duplicate mean"
RS1,0.82,migration z between -2 and 2; enough cells,1.09,6506
OR51I1,-0.48,migration z between -2 and 2; enough cells,0.76,6650
SLC25A26,-1.31,migration z between -2 and 2; enough cells,0.54,5630
IL36A,-0.39,migration z between -2 and 2; enough cells,0.78,7388
PACRGL,-1.96,migration z between -2 and 2; enough cells,0.38,4003
NPC1,-0.05,migration z between -2 and 2; enough cells,0.8,5742
PSENEN,-0.91,migration z between -2 and 2; enough cells,0.64,5772
HNF4G,0.1,migration z between -2 and 2; enough cells,0.82,6342
SLC22A24,-3 (active),migration z below -2; enough cells,0.1,3778
TOP6BL,2.16 (active),migration z above 2; enough cells,1.44,6334
CLEC18B,-0.52,migration z between -2 and 2; enough cells,0.75,5652
CYP1B1,0.32,migration z between -2 and 2; enough cells,0.96,6549
AFG2A,0.38,migration z between -2 and 2; enough cells,0.88,4557
PROP1,-1.12,migration z between -2 and 2; enough cells,0.59,5924
ABTB1,-0.34,migration z between -2 and 2; enough cells,0.74,5752
MED16,1.68,migration z between -2 and 2; enough cells,1.13,5384
PPL,-0.36,migration z between -2 and 2; enough cells,0.74,5614
UHRF2,-1.68,migration z between -2 and 2; enough cells,0.48,3960
OR10J1,0.4,migration z between -2 and 2; enough cells,0.99,5734
SAPCD1,0.34,migration z between -2 and 2; enough cells,0.98,6570
PRNT,0.38,migration z between -2 and 2; enough cells,0.99,5082
YIPF5,-0.11,migration z between -2 and 2; enough cells,0.86,6762
